The other results are listed elsewhere or left out.
Columns and labels:
Assay in all cases: log2 fold change, soluble protein after heating vs DMSO (PISA); higher = thermal stabilisation; K562 lysate, 10 uM; active = over 0.2 and 3.5 SD of the protein, either way, in both replicates (recomputed)
lapatinib = compound: CS(=O)(=O)CCNCc1ccc(-c2ccc3ncnc(Nc4ccc(OCc5cccc(F)c5)c(Cl)c4)c3c2)o1 [lapatinib]
Method in brief: (§1)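 Pellets of K562 cells were dounce-homogenised in PBS pH 7.4 with 1 mM MgCl2, and the crude extract was held at 1 mg/mL protein for a 30 min treatment with 10 μM compound. Aliquots were heated for 3 min over 48°C-58°C and pooled before NP-40 was added to 0.5% at 4°C. The supernatant from 21,000xg for 90 min was quantified by TMTpro 16plex LC-MS/MS with channel sums equalised. Values are reported from duplicates as log-two fold change in thermal stability relative to solvent controls.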

Sequences of proteins named here, by UniProt entry; tags and fusion partners are left off. A change or cut given only in a name is not applied to a line headed by its entry.
UniProt Q9Y294, whole entry, looked up: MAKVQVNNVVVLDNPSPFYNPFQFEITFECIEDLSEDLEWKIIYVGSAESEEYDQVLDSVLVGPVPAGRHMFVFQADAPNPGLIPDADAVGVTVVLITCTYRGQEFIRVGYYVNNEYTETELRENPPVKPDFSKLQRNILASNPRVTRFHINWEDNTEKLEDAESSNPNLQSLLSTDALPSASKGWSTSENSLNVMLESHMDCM
UniProt P25311: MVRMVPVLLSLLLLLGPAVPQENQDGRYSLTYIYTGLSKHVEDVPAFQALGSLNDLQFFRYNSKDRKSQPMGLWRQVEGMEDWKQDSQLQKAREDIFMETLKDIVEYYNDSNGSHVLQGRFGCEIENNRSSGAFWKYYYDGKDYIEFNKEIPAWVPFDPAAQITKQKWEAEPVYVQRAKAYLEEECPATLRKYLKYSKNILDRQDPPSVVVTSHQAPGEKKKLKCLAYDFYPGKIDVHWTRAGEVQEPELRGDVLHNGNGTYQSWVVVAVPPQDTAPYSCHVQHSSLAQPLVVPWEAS
UniProt Q9H7F0: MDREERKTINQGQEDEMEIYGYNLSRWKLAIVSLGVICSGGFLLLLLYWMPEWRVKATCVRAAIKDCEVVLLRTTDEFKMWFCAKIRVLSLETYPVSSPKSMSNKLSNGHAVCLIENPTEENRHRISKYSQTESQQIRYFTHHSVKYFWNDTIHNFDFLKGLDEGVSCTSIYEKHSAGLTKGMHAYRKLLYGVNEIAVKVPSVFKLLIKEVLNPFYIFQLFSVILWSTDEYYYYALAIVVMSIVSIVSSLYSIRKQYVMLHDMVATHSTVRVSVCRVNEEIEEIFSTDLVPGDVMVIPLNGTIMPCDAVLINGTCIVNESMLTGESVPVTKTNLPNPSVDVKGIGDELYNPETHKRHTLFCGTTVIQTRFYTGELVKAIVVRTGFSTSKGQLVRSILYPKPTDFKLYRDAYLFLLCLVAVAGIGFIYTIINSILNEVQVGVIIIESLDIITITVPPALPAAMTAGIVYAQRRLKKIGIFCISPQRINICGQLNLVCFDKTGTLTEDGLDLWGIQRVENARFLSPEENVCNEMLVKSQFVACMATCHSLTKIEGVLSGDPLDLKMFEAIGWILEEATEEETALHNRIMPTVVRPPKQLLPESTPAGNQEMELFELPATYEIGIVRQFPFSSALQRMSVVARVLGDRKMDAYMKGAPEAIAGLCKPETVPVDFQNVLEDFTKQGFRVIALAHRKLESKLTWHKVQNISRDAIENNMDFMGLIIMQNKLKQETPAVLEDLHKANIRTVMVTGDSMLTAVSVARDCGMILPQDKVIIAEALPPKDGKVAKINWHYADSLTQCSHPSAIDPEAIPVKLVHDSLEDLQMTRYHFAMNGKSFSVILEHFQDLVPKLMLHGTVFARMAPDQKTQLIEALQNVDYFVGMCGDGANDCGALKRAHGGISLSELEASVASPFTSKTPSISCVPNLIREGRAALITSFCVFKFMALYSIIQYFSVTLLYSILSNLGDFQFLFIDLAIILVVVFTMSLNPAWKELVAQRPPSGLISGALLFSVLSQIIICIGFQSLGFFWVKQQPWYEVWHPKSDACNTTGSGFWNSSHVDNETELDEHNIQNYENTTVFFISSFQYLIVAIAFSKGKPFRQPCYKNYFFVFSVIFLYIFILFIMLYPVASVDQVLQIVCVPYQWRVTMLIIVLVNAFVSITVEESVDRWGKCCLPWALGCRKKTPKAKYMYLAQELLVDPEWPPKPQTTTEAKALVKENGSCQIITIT
UniProt P35670: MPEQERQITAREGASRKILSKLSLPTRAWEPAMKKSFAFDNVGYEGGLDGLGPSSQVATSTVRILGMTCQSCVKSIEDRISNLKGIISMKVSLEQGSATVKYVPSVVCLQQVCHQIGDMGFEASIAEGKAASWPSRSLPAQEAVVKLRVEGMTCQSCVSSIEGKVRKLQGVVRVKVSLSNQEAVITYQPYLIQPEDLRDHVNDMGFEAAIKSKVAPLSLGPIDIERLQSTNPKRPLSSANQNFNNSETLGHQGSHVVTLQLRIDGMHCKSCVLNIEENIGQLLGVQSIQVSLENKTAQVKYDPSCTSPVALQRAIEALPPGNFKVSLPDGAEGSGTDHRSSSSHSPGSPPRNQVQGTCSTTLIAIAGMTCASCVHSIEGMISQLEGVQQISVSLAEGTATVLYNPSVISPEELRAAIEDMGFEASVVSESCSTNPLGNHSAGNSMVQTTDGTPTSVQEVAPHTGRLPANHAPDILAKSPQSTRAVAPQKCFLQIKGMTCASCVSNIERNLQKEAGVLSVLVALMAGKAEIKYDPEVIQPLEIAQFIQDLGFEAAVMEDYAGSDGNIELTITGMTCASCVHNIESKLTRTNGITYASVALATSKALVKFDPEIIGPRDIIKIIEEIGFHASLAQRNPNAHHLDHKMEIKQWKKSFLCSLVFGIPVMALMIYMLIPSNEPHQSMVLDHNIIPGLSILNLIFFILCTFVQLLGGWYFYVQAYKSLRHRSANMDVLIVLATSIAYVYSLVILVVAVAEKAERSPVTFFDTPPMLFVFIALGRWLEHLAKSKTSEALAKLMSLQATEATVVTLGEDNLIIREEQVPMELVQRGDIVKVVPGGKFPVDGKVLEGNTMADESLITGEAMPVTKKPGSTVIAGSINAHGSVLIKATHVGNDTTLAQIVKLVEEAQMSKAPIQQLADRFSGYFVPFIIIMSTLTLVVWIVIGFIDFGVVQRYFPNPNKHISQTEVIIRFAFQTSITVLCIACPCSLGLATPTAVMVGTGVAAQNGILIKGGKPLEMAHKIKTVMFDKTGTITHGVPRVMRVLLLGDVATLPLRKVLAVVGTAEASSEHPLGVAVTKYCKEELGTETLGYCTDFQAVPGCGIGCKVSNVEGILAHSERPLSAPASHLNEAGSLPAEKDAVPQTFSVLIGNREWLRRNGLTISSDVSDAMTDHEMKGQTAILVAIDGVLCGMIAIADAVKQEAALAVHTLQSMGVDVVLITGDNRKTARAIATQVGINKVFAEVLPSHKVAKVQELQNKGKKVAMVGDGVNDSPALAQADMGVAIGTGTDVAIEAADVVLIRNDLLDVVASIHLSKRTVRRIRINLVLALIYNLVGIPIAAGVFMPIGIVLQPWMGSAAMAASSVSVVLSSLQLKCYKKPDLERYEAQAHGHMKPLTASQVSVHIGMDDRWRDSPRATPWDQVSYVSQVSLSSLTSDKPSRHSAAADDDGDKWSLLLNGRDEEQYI
UniProt Q9UBB4: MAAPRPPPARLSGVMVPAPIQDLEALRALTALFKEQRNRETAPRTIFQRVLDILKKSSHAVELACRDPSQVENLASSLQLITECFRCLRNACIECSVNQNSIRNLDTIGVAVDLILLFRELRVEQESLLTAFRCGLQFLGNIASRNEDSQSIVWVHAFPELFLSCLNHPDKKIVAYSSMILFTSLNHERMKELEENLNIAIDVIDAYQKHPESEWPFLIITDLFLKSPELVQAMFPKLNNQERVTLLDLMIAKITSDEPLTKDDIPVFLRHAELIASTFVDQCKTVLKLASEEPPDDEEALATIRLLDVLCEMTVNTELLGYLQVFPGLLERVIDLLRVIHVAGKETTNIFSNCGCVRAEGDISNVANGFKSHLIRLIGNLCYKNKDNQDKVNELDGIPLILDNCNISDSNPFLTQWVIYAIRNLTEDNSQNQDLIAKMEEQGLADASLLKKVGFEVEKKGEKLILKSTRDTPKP
UniProt Q8NHH9: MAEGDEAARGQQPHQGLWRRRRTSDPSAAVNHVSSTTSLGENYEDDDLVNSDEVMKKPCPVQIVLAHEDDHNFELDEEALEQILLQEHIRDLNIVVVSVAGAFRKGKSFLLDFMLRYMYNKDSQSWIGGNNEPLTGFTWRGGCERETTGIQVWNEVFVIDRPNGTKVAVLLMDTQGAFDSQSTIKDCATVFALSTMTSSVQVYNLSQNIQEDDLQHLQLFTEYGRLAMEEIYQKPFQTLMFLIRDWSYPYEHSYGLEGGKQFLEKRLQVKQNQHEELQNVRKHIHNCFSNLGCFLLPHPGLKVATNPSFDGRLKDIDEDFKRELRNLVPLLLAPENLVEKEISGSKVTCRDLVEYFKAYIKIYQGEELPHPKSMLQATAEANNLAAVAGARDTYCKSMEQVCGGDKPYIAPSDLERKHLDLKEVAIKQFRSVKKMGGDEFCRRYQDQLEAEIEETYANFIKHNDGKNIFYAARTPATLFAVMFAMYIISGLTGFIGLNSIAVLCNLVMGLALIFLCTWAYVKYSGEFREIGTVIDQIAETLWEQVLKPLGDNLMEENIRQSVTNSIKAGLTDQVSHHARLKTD
UniProt O75964: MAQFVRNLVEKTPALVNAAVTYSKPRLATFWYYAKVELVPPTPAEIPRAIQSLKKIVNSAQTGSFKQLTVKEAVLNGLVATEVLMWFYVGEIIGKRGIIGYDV
UniProt P54709, whole entry, looked up: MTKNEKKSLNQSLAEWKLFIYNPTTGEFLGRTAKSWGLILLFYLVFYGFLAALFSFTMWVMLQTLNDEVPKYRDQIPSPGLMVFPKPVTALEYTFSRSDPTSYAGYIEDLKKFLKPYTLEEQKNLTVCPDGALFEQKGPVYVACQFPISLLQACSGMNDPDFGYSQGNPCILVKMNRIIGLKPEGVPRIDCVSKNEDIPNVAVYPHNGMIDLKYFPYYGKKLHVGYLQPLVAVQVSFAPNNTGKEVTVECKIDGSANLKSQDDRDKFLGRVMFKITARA
UniProt O43861: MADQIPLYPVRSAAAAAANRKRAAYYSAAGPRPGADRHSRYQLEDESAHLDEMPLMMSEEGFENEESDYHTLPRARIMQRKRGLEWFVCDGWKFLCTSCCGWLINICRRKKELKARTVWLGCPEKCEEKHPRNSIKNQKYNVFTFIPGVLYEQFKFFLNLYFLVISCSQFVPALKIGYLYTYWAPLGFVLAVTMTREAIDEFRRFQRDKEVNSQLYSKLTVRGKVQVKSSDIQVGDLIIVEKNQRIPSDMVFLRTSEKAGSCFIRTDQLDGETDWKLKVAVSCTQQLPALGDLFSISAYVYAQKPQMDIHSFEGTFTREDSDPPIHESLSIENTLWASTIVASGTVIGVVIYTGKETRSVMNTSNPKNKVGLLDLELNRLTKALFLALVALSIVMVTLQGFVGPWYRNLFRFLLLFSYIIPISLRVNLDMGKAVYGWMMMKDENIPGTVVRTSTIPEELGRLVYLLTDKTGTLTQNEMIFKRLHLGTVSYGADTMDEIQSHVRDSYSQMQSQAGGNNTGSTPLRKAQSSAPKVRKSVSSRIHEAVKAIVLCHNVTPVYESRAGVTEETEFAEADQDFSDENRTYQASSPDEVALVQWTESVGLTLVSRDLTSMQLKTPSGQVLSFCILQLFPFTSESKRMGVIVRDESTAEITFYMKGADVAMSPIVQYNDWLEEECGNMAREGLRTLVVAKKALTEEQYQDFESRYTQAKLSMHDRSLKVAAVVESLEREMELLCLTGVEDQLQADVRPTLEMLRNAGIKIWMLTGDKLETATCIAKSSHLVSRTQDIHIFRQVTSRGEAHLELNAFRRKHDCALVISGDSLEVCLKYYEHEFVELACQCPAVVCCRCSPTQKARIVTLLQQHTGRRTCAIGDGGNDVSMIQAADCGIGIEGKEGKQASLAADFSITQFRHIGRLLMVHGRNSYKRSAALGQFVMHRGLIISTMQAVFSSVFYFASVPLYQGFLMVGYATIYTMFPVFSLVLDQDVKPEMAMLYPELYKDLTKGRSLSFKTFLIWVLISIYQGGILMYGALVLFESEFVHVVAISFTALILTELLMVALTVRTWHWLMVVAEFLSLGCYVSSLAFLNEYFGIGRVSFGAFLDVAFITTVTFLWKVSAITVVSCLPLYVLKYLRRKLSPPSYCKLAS
UniProt Q06055: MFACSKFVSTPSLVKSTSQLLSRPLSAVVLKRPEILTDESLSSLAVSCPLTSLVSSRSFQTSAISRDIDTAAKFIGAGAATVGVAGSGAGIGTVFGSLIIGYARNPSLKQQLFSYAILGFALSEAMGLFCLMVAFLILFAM
UniProt P21283, whole entry, looked up: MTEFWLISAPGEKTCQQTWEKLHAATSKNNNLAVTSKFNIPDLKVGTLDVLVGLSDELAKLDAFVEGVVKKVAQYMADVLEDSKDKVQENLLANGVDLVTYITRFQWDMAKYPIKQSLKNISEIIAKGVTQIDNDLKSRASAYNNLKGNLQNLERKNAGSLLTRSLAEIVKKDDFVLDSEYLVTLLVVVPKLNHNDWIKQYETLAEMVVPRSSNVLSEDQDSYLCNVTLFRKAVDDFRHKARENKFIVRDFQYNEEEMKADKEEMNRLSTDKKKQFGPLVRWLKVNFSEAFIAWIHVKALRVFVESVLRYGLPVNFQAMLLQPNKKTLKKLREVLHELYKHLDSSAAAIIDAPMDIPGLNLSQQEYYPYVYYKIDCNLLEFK
UniProt Q9NVP2, whole entry, looked up: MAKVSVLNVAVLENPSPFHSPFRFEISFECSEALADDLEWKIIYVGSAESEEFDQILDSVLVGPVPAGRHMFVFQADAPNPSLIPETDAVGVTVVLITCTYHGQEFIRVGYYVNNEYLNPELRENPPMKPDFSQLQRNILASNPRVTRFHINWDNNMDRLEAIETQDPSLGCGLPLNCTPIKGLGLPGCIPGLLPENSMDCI

pictilisib = compound: CS(=O)(=O)N1CCN(Cc2cc3nc(-c4cccc5[nH]ncc45)nc(N4CCOCC4)c3s2)CC1 [pictilisib]
Method in brief: as §1

crizotinib = compound: C[C@@H](Oc1cc(-c2cnn(C3CCNCC3)c2)cnc1N)c1c(Cl)ccc(F)c1Cl [crizotinib]
Method in brief: as §1

[1] = compound: C[C@H](C1=CC=C(C=C1)C(=O)NC2=C3C=CNC3=NC=C2)N
Method in brief: as §1

duvelisib = compound: C[C@H](Nc1ncnc2nc[nH]c12)c1cc2cccc(Cl)c2c(=O)n1-c1ccccc1 [duvelisib]
Method in brief: as §1

gandotinib = compound: Cc1cc(Nc2cc(CN3CCOCC3)c3nc(C)c(Cc4ccc(Cl)cc4F)n3n2)n[nH]1 [gandotinib]
Method in brief: as §1

tozasertib = compound: Cc1cc(Nc2cc(N3CCN(C)CC3)nc(Sc3ccc(NC(=O)C4CC4)cc3)n2)n[nH]1 [tozasertib]
Method in brief: as §1

doramapimod = compound: Cc1ccc(-n2nc(C(C)(C)C)cc2NC(=O)Nc2ccc(OCCN3CCOCC3)c3ccccc23)cc1 [doramapimod]
Method in brief: as §1

bafetinib = compound: Cc1ccc(NC(=O)c2ccc(CN3CC[C@H](N(C)C)C3)c(C(F)(F)F)c2)cc1Nc1nccc(-c2cncnc2)n1 [bafetinib]
Method in brief: as §1

[2] = compound: Cc1cccc(CC(=O)N2CCc3c2ccc(-c2cn(C)c4ncnc(N)c24)c3F)n1
Method in brief: as §1

nilotinib = compound: Cc1cn(-c2cc(NC(=O)c3ccc(C)c(Nc4nccc(-c5cccnc5)n4)c3)cc(C(F)(F)F)c2)cn1 [nilotinib]
Method in brief: as §1

[3] = compound: Cc1nc(Nc2n[nH]c3c2CN(C(=O)N[C@H](CN(C)C)c2ccccc2)C3(C)C)c2sccc2n1
Method in brief: as §1

dasatinib = compound: Cc1nc(Nc2ncc(C(=O)Nc3c(C)cccc3Cl)s2)cc(N2CCN(CCO)CC2)n1 [dasatinib]
Method in brief: as §1

[4] = compound: Cc1ncc(-c2ccnc(Nc3ccc(S(C)(=O)=O)cc3)n2)n1C(C)C
Method in brief: as §1

[5] = compound: Cn1cc(-c2ccc3c(c2)CCN3C(=O)Cc2cccc(C(F)(F)F)c2)c2c(N)ncnc21
Method in brief: as §1

quisinostat = compound: Cn1cc(CNCC2CCN(c3ncc(C(=O)NO)cn3)CC2)c2ccccc21 [quisinostat]
Method in brief: as §1

tipifarnib = compound: Cn1cncc1[C@@](N)(c1ccc(Cl)cc1)c1ccc2c(c1)c(-c1cccc(Cl)c1)cc(=O)n2C [tipifarnib]
Method in brief: as §1

[6] = compound: NC(=O)Nc1cc(-c2cccc(F)c2)sc1C(=O)N[C@H]1CCCNC1
Method in brief: as §1

[7] = compound: NC(=O)c1cnc(N[C@@H]2CCCC[C@@H]2N)nc1Nc1cccc(-n2nccn2)c1
Method in brief: as §1

[8] = compound: NC1(c2ccc(-c3nc4ccn5c(=O)[nH]nc5c4cc3-c3ccccc3)cc2)CCC1
Method in brief: as §1

Row | Target | log2 fold change (lapatinib) | log2 fold change (pictilisib) | log2 fold change (crizotinib) | log2 fold change [1] | log2 fold change (duvelisib) | log2 fold change (gandotinib) | log2 fold change (tozasertib) | log2 fold change (doramapimod) | log2 fold change (bafetinib) | log2 fold change [2] | log2 fold change (nilotinib) | log2 fold change [3] | log2 fold change (dasatinib) | log2 fold change [4] | log2 fold change [5] | log2 fold change (quisinostat) | log2 fold change (tipifarnib) | log2 fold change [6] | log2 fold change [7] | log2 fold change [8]
1 | ASF1A (UniProt Q9Y294) | inactive: -0.002 | inactive: 0.003 | inactive: -0.009 | inactive: -0.032 | inactive: 0.055 | inactive: 0.055 | inactive: 0.048 | inactive: -0.013 | inactive: -0.027 | inactive: 0.011 | inactive: -0.006 | inactive: 0.033 | inactive: 0.05 | inactive: 0.001 | inactive: 0.002 | inactive: -0.053 | inactive: 0.008 | inactive: 0.011 | inactive: 0.016 | inactive: -0.003
2 | AURKAIP1 (UniProt Q9NWT8) | inactive: -0.001 | inactive: 0.051 | inactive: 0.021 | inactive: -0.017 | inactive: 0.012 | inactive: -0.03 | inactive: 0.028 | inactive: -0.039 | inactive: -0.029 | inactive: -0.04 | inactive: -0.072 | inactive: -0.019 | inactive: 0 | inactive: 0 | inactive: -0.058 | inactive: -0.02 | inactive: -0.041 | inactive: 0.055 | inactive: 0.042 | inactive: -0.071
3 | AZGP1 (UniProt P25311) | inactive: 0.569 | inactive: 0.604 | inactive: 0.22 | inactive: 0.494 | inactive: -0.281 | inactive: 0.118 | inactive: 0.319 | inactive: -0.044 | inactive: 0.17 | inactive: -0.047 | inactive: 0.589 | inactive: -0.024 | inactive: 0.069 | inactive: 0.281 | inactive: 0.734 | inactive: -0.09 | inactive: -0.197 | inactive: 0.064 | inactive: 0.13 | inactive: -0.021
4 | ATP13A3 (UniProt Q9H7F0) | inactive: -0.029 | inactive: -0.056 | inactive: -0.008 | inactive: -0.172 | inactive: 0.005 | inactive: 0.047 | inactive: -0.023 | inactive: 0.051 | inactive: -0.107 | inactive: 0.15 | inactive: 0.01 | inactive: 0.026 | inactive: 0.009 | inactive: 0.026 | inactive: 0.04 | inactive: -0.05 | inactive: 0.052 | inactive: 0.017 | inactive: 0.006 | inactive: 0.024
5 | ATP7B (UniProt P35670) | inactive: 0.133 | inactive: -0.06 | inactive: -0.025 | inactive: -0.059 | inactive: -0.011 | inactive: 0.039 | inactive: -0.071 | inactive: 0.044 | inactive: -0.065 | inactive: 0.033 | inactive: 0.162 | inactive: -0.005 | inactive: 0.165 | inactive: -0.049 | inactive: -0.004 | inactive: -0.008 | inactive: 0.079 | inactive: 0.035 | inactive: -0.006 | inactive: -0.038
6 | ASDURF (UniProt L0R819) | inactive: -0.035 | inactive: 0.061 | inactive: 0.065 | inactive: 0.016 | inactive: 0.015 | inactive: 0.025 | inactive: -0.044 | inactive: -0.005 | inactive: -0.011 | inactive: -0.008 | inactive: -0.038 | inactive: 0.041 | inactive: 0.003 | inactive: 0.017 | inactive: -0.029 | inactive: 0.011 | inactive: 0.005 | inactive: 0.022 | inactive: 0.018 | inactive: -0.025
7 | ATXN10 (UniProt Q9UBB4) | inactive: -0.012 | inactive: -0.027 | inactive: 0.014 | inactive: 0.055 | inactive: 0.035 | inactive: -0.049 | inactive: 0.005 | inactive: -0.029 | inactive: -0.01 | inactive: -0.018 | inactive: -0.001 | inactive: -0.022 | inactive: -0.01 | inactive: -0.011 | inactive: 0.026 | inactive: 0.007 | inactive: 0.016 | inactive: -0.002 | inactive: 0.01 | inactive: 0.01
8 | ATL2 (UniProt Q8NHH9) | inactive: -0.022 | inactive: -0.022 | inactive: -0.018 | inactive: -0.159 | inactive: 0.062 | inactive: -0.031 | inactive: -0.002 | inactive: -0.019 | inactive: 0.026 | inactive: 0.085 | inactive: 0.04 | inactive: 0.032 | inactive: -0.034 | inactive: -0.047 | inactive: -0.004 | inactive: 0.084 | inactive: -0.018 | inactive: -0.039 | inactive: 0 | inactive: 0.042
9 | ATP5MG (UniProt O75964) | inactive: -0.017 | inactive: 0.008 | inactive: -0.009 | inactive: -0.073 | inactive: 0.013 | inactive: -0.014 | inactive: 0 | inactive: 0.004 | inactive: -0.046 | inactive: 0 | inactive: 0.038 | inactive: 0.009 | inactive: -0.034 | inactive: 0.029 | inactive: -0.003 | inactive: -0.013 | inactive: 0.003 | inactive: -0.012 | inactive: -0.051 | inactive: 0.023
10 | ATG4A (UniProt Q8WYN0) | inactive: -0.017 | inactive: -0.02 | inactive: -0.033 | inactive: -0.061 | inactive: -0.009 | inactive: -0.025 | inactive: 0.044 | inactive: 0.008 | inactive: -0.014 | inactive: 0.063 | inactive: -0.022 | inactive: 0.018 | inactive: -0.064 | inactive: 0.037 | inactive: -0.038 | inactive: -0.042 | inactive: -0.015 | inactive: 0.096 | inactive: -0.02 | inactive: 0
11 | ATP1B3 (UniProt P54709) | inactive: -0.004 | inactive: -0.018 | inactive: 0.027 | inactive: -0.028 | inactive: 0.016 | inactive: 0.031 | inactive: -0.008 | inactive: -0.009 | inactive: 0.045 | inactive: -0.032 | inactive: 0.006 | inactive: 0.005 | inactive: 0.02 | inactive: 0.019 | inactive: -0.035 | inactive: -0.005 | inactive: 0.007 | inactive: -0.004 | inactive: -0.023 | inactive: 0.017
12 | ATP9B (UniProt O43861) | inactive: -0.063 | inactive: -0.269 | inactive: 0.032 | inactive: -0.181 | inactive: -0.005 | inactive: -0.037 | inactive: 0.017 | inactive: 0.136 | active: 0.446 | inactive: 0.242 | inactive: 0.05 | inactive: 0.164 | inactive: -0.04 | inactive: -0.069 | inactive: -0.049 | inactive: 0.009 | inactive: -0.08 | inactive: -0.021 | inactive: 0.107 | inactive: 0.064
13 | ATP5MC2 isoform 2 (UniProt Q06055) | inactive: 0.022 | inactive: 0.084 | inactive: 0.001 | inactive: -0.157 | inactive: 0.004 | inactive: 0.079 | inactive: 0 | inactive: 0.059 | inactive: -0.015 | inactive: 0.084 | inactive: -0.037 | inactive: 0.032 | inactive: 0.028 | inactive: 0.033 | inactive: -0.018 | inactive: -0.1 | inactive: -0.032 | inactive: 0.033 | inactive: -0.127 | inactive: -0.07
14 | ATP6V1C1 (UniProt P21283) | inactive: -0.003 | inactive: -0.002 | inactive: -0.036 | inactive: -0.014 | inactive: -0.012 | inactive: -0.032 | inactive: 0.01 | inactive: 0.025 | inactive: 0.02 | inactive: -0.005 | inactive: -0.023 | inactive: 0.006 | inactive: -0.011 | inactive: 0.004 | inactive: 0.03 | inactive: -0.013 | inactive: 0.01 | inactive: -0.019 | inactive: 0.019 | inactive: 0.014
15 | ASF1B (UniProt Q9NVP2) | inactive: -0.025 | inactive: -0.034 | inactive: -0.028 | inactive: 0.047 | inactive: -0.014 | inactive: 0.063 | inactive: -0.035 | inactive: -0.004 | inactive: 0.063 | inactive: -0.006 | inactive: -0.021 | inactive: -0.045 | inactive: -0.015 | inactive: 0.028 | inactive: -0.043 | inactive: -0.122 | inactive: -0.053 | inactive: 0.106 | inactive: 0.045 | inactive: 0.002
16 | ATXN3 isoform 1 (UniProt P54252) | inactive: -0.009 | inactive: -0.047 | inactive: -0.005 | inactive: 0.038 | inactive: -0.003 | inactive: -0.03 | inactive: 0.081 | inactive: 0.033 | inactive: -0.006 | inactive: -0.031 | inactive: -0.006 | inactive: -0.015 | inactive: -0.022 | inactive: 0.009 | inactive: 0.006 | inactive: -0.039 | inactive: 0.064 | inactive: 0.007 | inactive: -0.019 | inactive: -0.041

Copied from the list.
ATP13A3 (UniProt Q9H7F0) – log2 fold change [8]: inactive: 0.024
ATP5MC2 isoform 2 (UniProt Q06055) – log2 fold change [6]: inactive: 0.033

Reference: the supplement of paper PMC10849652
